Data from patent publication US20130041023A1, “Composition for Preventing or Treating Rotavirus Infection Comprising Licorice Extract” (priority 2010, published 2013).
Some of these results come from one statement about several compounds together.

Key:
[1] = system: porcine rotavirus KJ205 (G5P[7]); assay: Virucidal effect against porcine rotavirus KJ205 (sample pre-reacted with virus, neutral red readout in TF-104 cells); assay type: cell-based; conditions: range spans NCDV and KJ205 values of Table 1
Description: In order to the CPE (cytopathic effect) reduction effects and virucidal effects of the compounds separated from licorice on bovine rotavirus NCDV (G6P[1]) and porcine rotavirus KJ205 (G5P[7]), the following in vitro experiment was performed using the fetal rhesus monkey kidney cell line TF-104.
First, TF-104 cells were added to a 96-well microplate at a density of 4×10^4 cells/well and cultured with alpha-MEM medium (penicillin 100 units, […], 5% FBS). When the TF-104 cells formed a monolayer, the cells were washed twice with alpha-MEM containing only an antibiotic. Each of NCDV and KJ205 was diluted to an MOI of 0.01 and placed in EP tubes. […] Then, the medium was removed, […] solution (1% glacial acetic acid, 49% DDW, 50% EtOH) was added to each well, and after 15 minutes, the absorbance at 540 nm was measured. The virucidal effects (inhibition %) of the inventive compounds separated from licorice compared to the non-infected+non-administered control group and the infected+non-administered control group were calculated using the following equation 1, and the results of the calculation are shown in Table 1 below. […]
In the above equation, the O.D value means the absorbance measured at 540 nm.

[2] = system: porcine rotavirus KJ205 (G5P[7]); assay: CPE inhibition effect, porcine rotavirus KJ205 (TF-104 cells treated after virus inoculation); assay type: cell-based
Description: In order to the CPE (cytopathic effect) reduction effects and virucidal effects of the compounds separated from licorice on bovine rotavirus NCDV (G6P[1]) and porcine rotavirus KJ205 […][7]), the following in vitro experiment was performed using the fetal rhesus monkey kidney cell line TF-104. Inhibition %=(O.D) value of sample-treated group-(O.D) value of infected+non-administered control/(O.D) value of non-infected+non-administered control-(O.D) value of infected+non-administered control×100 [Equation 1] In the above equation, the O.D value means the absorbance measured at 540 nm. Meanwhile, in order to examine the inhibitory effects of the compounds separated from licorice on the CPE of bovine rotavirus NCDV (G6P[1]) and porcine rotavirus KJ205 […][7]), […] were washed twice with alpha-MEM containing only an antibiotic, after which the viruses were inoculated into the TF-104 cells and incubated at 37° C. for 1 hour. After 1 hour, the inoculated virus liquids were completely removed, the virus-inoculated TF-104 cells were treated with varying concentrations of the licorice extract and the polyphenolic compounds. Further, the cytopathic effect inhibition (inhibition %) of the compounds separated from licorice were calculated using equation 1 above in the same manner as described above, and the results of the calculation are shown in Table 1 below.

Row | SMILES | selective index (virucidal effects) [1] | inhibitory effects on the cytopathic effect of porcine rotavirus, result in words [2]
1 | COc1c(CC=C(C)C)c(O)cc2c1CC(c1ccc(O)cc1O)CO2 (stereo not shown) [Compound 4, glyasperin C] | 1.5-16.4 | –
2 | COc1c(CC=C(C)C)c(O)cc2oc(-c3ccc(O)cc3O)cc12 [Compound 3, licocoumarone] | 1.5-16.4 | excellent inhibitory effects
3 | COc1cc(O)ccc1C(=O)/C=C/c1ccc(O)cc1 [Compound 2, 2-methoxyisoliquiritigenin] | – | excellent inhibitory effects
